Laboratory results reported in paper PMC9279154 (Nature, 2022).
The exact form of at least one protein or probe is not confirmed. At least one verdict rests on a figure or table, not on a statement of the authors.

Tests used:
Dcr-2 WT + Loqs-PD [1] = experiment: size exclusion chromatography; conditions: dimer; 5'-monophosphate on both strands; recombinant protein
Dcr-2 WT + Loqs-PD [2] = experiment: EMSA; conditions: 0.2 uM dsRNA, Loqs-PD helps Dcr-2 bind dsRNA; 5'-monophosphate on both strands; with or without ATP and Mg2+; recombinant protein

## GAGACUUGGGCAAUGUGACUGCUGAUCAGCAGUCACAUUGCCCAAGUCUCUU / GAGACUUGGGCAAUGUGACUGCUGAUCAGCAGUCACAUUGCCCAAGUCUCUU [50 bp palindromic dsRNA]
Dcr-2 WT + Loqs-PD [1]
  binding result: binds
Dcr-2 WT + Loqs-PD [2]
  binding result: binds
